No constants are given. Whether binding was seen depends on the method and setting. Binding seen in cells or lysates may run through a third protein. Some binding calls cover weakened binding; strength is not graded here.
How the values were obtained:
[1] = biological target: c-Jun, endogenous (human (endogenous in HT-29)) (UniProt P05412); experiment: co-IP; endogenous proteins; HT-29 cells unstimulated or stimulated with LPS (200 ng/ml, 4 hr, medium without FBS); lysed in IP buffer (10 mM HEPES pH 7.4, 150 mM NaCl, 1% Triton X-100); lysate with c-Jun, ERK3 or Normal Rabbit IgG antibody and Protein A/G-Agarose beads, 2 hr at 4°C; immunoblot
[2] = biological target: ERK3 (MAPK6), endogenous (human (endogenous in HT-29)) (UniProt Q16659); experiment: as above

Amino acid sequences for entries named in this document (tags omitted).
UniProt P05412: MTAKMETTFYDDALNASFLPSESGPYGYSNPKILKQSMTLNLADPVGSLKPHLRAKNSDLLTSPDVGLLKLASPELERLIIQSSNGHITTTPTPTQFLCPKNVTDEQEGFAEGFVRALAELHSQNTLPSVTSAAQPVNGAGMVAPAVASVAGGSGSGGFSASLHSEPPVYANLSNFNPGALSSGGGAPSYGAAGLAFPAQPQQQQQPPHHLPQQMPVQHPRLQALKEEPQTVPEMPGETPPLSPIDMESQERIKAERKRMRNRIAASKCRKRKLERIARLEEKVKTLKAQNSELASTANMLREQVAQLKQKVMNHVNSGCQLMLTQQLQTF
UniProt Q16659: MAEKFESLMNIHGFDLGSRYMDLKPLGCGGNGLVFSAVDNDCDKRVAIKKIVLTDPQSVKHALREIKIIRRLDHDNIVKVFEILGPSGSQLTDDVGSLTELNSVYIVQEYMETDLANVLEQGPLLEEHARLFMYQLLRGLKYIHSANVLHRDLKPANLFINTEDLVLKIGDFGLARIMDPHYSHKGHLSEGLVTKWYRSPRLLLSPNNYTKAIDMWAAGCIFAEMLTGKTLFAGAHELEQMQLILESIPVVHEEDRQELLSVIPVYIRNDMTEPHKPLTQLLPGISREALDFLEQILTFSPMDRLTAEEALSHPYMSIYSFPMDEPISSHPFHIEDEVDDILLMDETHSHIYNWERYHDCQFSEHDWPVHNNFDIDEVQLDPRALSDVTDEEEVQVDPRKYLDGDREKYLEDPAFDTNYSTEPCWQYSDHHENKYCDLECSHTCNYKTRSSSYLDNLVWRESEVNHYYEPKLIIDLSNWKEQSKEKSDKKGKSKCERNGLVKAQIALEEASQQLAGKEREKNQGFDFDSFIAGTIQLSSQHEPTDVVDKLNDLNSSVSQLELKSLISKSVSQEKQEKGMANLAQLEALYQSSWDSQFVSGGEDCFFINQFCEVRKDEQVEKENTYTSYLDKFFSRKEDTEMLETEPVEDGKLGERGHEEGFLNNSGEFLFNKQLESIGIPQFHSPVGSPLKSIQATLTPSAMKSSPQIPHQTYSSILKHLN

binding [1]	binding [2]	Substance
binds		ERK3 (MAPK6), endogenous (from UniProt Q16659 1-721)
	binds	c-Jun, endogenous (from UniProt P05412 1-331)
